Assay results from the supplement of paper PMC10849652.
This is one part of the list.

By UniProt entry, the sequences of proteins in these tests, tags left out. Where a name states a change or a piece, a line headed by the entry shows the natural chain unless it says otherwise.
UniProt Q12792, whole entry, looked up: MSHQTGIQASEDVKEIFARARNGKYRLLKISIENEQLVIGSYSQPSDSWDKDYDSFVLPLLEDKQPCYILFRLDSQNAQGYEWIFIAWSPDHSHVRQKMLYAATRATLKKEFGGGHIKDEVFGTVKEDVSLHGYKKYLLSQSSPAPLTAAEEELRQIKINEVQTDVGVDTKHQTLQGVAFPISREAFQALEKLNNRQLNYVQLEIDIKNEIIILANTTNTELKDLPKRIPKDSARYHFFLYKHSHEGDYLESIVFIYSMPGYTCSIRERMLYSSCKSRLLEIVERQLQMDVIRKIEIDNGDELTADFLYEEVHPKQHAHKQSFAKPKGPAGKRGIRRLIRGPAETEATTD
UniProt A6NHL2: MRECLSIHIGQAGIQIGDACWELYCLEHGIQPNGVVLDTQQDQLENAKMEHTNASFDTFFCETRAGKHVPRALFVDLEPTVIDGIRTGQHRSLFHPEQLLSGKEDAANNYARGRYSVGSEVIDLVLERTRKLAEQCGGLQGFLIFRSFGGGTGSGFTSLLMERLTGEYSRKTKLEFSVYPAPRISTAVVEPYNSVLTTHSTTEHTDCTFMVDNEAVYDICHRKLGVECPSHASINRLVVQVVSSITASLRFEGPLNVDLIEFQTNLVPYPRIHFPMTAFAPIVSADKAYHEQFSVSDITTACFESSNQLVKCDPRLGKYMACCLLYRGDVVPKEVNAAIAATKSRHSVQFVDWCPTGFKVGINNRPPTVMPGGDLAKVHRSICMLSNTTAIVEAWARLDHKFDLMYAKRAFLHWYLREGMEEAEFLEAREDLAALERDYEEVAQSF
UniProt Q6ZU65, whole entry, looked up: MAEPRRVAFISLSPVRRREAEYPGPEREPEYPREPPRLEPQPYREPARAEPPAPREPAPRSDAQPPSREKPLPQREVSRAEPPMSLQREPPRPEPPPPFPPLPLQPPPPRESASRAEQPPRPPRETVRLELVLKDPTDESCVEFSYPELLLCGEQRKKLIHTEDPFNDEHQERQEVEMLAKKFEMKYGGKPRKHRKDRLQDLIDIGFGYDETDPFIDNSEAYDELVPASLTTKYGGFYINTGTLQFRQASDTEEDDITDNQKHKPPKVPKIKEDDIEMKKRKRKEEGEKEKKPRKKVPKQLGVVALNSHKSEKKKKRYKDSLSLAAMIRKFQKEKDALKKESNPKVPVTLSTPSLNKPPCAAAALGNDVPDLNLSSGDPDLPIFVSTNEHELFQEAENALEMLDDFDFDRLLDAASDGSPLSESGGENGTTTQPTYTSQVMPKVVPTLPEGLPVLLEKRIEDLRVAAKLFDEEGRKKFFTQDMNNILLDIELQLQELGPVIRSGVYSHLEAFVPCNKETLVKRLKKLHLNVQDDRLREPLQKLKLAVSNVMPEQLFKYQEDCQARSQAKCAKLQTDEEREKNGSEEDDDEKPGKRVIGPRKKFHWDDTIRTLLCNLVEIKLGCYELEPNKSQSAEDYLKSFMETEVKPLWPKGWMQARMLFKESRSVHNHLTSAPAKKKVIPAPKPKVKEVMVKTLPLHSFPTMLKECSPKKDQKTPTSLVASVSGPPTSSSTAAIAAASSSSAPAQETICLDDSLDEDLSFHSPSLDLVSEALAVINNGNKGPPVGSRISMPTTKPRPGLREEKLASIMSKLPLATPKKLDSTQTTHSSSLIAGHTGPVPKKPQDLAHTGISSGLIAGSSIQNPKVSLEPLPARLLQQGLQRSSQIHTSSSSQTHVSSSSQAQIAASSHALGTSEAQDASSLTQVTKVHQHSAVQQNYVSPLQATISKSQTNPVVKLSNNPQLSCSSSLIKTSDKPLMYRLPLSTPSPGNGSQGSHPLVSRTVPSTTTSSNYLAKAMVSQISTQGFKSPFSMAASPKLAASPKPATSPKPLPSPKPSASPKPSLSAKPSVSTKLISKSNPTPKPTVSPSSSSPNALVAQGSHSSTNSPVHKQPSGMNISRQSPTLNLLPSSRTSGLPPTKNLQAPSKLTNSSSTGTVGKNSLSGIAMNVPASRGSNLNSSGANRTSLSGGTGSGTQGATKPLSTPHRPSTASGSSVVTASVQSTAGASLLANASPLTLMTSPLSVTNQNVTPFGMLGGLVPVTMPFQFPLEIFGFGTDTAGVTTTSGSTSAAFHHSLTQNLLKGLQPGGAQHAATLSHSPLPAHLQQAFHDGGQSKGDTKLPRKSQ
UniProt Q16881, whole entry, looked up: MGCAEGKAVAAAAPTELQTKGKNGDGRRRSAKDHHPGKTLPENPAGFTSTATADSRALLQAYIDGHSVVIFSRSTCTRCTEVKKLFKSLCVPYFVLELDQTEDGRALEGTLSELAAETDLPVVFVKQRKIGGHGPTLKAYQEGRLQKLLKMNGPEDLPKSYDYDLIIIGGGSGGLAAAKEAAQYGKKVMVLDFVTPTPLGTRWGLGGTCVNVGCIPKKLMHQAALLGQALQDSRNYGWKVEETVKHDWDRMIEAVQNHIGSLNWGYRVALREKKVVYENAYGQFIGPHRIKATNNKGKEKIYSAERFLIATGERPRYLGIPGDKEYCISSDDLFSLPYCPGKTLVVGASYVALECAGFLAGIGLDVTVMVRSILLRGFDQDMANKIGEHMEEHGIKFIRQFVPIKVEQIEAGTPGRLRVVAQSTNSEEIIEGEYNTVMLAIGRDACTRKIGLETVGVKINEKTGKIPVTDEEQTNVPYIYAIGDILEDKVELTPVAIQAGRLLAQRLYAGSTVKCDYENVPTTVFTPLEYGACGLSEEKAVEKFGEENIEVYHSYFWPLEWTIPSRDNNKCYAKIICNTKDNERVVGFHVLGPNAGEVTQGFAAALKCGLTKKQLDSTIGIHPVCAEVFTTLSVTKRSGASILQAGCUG
UniProt Q96ET8: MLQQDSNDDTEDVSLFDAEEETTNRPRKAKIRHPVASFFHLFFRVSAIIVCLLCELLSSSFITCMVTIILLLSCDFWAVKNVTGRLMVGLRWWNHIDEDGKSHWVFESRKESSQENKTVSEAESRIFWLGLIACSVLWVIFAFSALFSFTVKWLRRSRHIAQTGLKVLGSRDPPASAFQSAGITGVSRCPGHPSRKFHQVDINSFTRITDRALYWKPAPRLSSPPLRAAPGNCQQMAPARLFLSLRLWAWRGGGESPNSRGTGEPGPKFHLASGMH
UniProt O14530: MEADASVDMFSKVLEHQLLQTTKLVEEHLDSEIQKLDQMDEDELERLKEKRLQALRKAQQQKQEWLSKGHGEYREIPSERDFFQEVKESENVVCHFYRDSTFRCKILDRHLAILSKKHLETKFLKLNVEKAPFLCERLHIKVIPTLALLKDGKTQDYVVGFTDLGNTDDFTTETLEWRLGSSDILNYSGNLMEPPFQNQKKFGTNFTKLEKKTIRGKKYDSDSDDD
UniProt Q86VQ3: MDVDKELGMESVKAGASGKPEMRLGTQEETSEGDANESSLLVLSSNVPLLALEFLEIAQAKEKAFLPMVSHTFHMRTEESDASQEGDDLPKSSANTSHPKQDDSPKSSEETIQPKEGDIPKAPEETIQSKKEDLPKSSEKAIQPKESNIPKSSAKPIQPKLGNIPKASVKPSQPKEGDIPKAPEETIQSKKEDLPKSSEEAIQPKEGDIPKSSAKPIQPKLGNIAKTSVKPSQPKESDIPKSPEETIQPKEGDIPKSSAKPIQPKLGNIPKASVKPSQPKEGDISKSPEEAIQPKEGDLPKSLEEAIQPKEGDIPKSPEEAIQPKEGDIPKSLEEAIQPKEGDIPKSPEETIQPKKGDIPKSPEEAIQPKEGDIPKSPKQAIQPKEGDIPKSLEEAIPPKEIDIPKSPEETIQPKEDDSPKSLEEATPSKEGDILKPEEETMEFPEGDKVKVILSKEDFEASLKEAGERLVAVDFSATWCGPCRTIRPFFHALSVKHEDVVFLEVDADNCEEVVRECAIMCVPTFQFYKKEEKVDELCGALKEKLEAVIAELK
UniProt Q9NNX1: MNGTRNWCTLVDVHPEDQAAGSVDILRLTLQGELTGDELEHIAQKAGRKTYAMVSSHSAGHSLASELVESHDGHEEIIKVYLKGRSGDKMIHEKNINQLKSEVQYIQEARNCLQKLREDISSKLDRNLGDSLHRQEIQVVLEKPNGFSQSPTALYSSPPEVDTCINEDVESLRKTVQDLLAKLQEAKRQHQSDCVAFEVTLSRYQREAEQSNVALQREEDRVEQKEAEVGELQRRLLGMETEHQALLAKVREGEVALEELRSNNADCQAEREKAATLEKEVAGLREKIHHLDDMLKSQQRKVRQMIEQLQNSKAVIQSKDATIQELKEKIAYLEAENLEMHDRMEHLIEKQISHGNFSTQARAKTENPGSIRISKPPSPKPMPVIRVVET
UniProt Q9NPG3, whole entry, looked up: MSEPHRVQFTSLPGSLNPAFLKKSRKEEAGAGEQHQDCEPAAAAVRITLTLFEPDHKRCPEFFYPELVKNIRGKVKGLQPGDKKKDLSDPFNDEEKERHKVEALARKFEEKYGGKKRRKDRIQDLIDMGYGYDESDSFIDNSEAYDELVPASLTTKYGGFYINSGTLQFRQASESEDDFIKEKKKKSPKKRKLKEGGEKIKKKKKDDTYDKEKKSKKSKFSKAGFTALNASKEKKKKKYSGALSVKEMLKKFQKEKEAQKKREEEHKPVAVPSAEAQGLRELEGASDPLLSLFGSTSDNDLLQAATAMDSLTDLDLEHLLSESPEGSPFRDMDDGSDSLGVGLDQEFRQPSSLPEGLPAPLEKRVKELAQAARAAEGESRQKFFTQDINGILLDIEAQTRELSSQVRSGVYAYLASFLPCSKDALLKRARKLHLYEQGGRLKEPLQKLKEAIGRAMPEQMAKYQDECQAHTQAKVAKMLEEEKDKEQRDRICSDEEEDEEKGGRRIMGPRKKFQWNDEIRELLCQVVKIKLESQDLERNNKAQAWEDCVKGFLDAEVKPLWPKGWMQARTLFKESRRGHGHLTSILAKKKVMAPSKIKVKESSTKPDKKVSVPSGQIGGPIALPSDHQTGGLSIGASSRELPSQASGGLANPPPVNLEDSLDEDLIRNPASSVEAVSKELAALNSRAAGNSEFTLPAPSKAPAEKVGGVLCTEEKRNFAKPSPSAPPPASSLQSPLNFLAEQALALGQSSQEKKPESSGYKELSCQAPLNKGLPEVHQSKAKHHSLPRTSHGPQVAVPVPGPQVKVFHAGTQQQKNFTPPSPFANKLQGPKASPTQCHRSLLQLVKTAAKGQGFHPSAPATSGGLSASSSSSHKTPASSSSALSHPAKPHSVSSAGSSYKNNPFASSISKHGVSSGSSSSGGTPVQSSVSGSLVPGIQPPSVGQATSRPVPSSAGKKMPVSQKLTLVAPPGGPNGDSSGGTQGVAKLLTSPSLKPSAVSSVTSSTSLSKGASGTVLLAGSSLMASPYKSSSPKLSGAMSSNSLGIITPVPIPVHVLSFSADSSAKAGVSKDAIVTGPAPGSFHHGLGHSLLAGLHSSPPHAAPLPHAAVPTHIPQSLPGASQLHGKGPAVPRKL
UniProt A2RUC4: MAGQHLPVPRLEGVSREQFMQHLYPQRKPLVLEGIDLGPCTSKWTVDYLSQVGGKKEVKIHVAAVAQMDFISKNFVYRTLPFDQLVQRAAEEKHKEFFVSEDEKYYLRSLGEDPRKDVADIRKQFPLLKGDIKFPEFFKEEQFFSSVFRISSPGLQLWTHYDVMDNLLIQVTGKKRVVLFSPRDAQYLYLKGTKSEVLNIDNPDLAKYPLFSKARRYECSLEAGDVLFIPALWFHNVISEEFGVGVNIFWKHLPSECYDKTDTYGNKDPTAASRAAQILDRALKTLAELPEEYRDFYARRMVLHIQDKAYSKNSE
UniProt Q06418: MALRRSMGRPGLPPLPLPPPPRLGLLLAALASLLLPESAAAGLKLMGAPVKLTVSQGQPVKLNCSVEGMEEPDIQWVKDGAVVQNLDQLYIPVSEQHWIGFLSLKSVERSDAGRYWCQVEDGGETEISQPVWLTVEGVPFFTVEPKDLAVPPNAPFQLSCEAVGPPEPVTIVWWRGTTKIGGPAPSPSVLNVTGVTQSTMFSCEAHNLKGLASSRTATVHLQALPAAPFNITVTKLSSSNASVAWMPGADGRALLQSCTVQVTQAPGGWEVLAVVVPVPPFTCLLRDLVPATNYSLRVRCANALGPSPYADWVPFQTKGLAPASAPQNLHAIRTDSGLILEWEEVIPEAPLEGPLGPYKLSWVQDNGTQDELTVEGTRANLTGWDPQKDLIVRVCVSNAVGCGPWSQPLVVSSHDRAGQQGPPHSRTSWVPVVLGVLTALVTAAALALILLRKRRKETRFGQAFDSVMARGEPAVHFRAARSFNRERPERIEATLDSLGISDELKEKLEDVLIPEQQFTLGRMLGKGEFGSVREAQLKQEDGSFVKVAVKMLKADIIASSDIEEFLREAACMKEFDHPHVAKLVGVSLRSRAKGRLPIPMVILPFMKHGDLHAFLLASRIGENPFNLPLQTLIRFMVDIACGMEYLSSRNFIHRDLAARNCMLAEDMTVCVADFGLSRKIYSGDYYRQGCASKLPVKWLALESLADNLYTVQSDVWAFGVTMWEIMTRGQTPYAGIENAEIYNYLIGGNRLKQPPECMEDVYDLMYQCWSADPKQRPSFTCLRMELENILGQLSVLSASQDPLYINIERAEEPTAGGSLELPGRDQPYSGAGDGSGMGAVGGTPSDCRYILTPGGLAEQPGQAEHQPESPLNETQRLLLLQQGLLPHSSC

How the values were obtained:
Assay in all cases: log2 fold change, soluble protein after heating vs DMSO (PISA); higher = thermal stabilisation; K562 lysate, 10 uM; active = over 0.2 and 3.5 SD of the protein, either way, in both replicates (recomputed)
nilotinib = compound: Cc1cn(-c2cc(NC(=O)c3ccc(C)c(Nc4nccc(-c5cccnc5)n4)c3)cc(C(F)(F)F)c2)cn1 [nilotinib]
Procedure, shortened: (§1)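 Quantification was by TMTpro 16plex LC-MS/MS with equalised channel sums, applied to the supernatant after 21,000xg for 90 min. Samples were crude K562 extract at 1 mg/mL protein in PBS pH 7.4 with 1 mM MgCl2, treated with 10 μM compound for 30 min, heated for 3 min across 48°C-58°C, pooled and brought to 0.5% NP-40 at 4°C. Values are log-two fold changes in thermal stability relative to solvent controls, from duplicates.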

[1] = compound: Cc1nc(Nc2n[nH]c3c2CN(C(=O)N[C@H](CN(C)C)c2ccccc2)C3(C)C)c2sccc2n1
Procedure, shortened: as §1

dasatinib = compound: Cc1nc(Nc2ncc(C(=O)Nc3c(C)cccc3Cl)s2)cc(N2CCN(CCO)CC2)n1 [dasatinib]
Procedure, shortened: as §1

[2] = compound: Cc1ncc(-c2ccnc(Nc3ccc(S(C)(=O)=O)cc3)n2)n1C(C)C
Procedure, shortened: as §1

[3] = compound: Cn1cc(-c2ccc3c(c2)CCN3C(=O)Cc2cccc(C(F)(F)F)c2)c2c(N)ncnc21
Procedure, shortened: as §1

quisinostat = compound: Cn1cc(CNCC2CCN(c3ncc(C(=O)NO)cn3)CC2)c2ccccc21 [quisinostat]
Procedure, shortened: as §1

tipifarnib = compound: Cn1cncc1[C@@](N)(c1ccc(Cl)cc1)c1ccc2c(c1)c(-c1cccc(Cl)c1)cc(=O)n2C [tipifarnib]
Procedure, shortened: as §1

[4] = compound: NC(=O)Nc1cc(-c2cccc(F)c2)sc1C(=O)N[C@H]1CCCNC1
Procedure, shortened: as §1

[5] = compound: NC(=O)c1cnc(N[C@@H]2CCCC[C@@H]2N)nc1Nc1cccc(-n2nccn2)c1
Procedure, shortened: as §1

[6] = compound: NC1(c2ccc(-c3nc4ccn5c(=O)[nH]nc5c4cc3-c3ccccc3)cc2)CCC1
Procedure, shortened: as §1

Measured: log2 fold change

UBR7 (UniProt Q8N806)
inactive: nilotinib -0.017 | [1] 0.093 | dasatinib 0.017 | [2] 0.016 | [3] -0.02 | quisinostat 0.008 | tipifarnib -0.017 | [4] -0.044 | [5] 0.021 | [6] -0.002

UBOX5 (UniProt O94941)
inactive: nilotinib 0.075 | [1] 0.047 | dasatinib 0.076 | [2] -0.004 | [3] 0.106 | tipifarnib 0.013 | [6] 0.174

UBE2NL (UniProt Q5JXB2)
inactive: nilotinib 0.029 | [1] -0.012 | dasatinib -0.021 | [2] 0.02 | [3] -0.036 | quisinostat 0.007 | tipifarnib 0.054 | [4] -0.082 | [5] -0.013 | [6] 0.05

UBE2J2 (UniProt Q8N2K1)
inactive: nilotinib 0.015 | [1] -0.029 | dasatinib -0.038 | [2] -0.045 | [3] 0.048 | quisinostat 0.031 | tipifarnib -0.046 | [4] 0.127 | [6] -0.133

TUFM (UniProt P49411)
inactive: nilotinib 0.024 | [1] -0.016 | dasatinib -0.012 | [2] -0.013 | [3] 0.054 | quisinostat -0.022 | tipifarnib 0.018 | [4] 0.087 | [5] 0.031 | [6] -0.023

TUSC2 (UniProt O75896)
inactive: nilotinib -0.072 | [1] 0.05 | dasatinib 0.064 | [2] -0.099 | [3] 0.027 | tipifarnib -0.125 | [5] -0.198 | [6] 0.191

UBXN8 (UniProt O00124)
inactive: nilotinib -0.104 | [1] -0.031 | dasatinib 0.043 | [2] 0.098 | [3] -0.009 | quisinostat -0.388 | tipifarnib 0.041 | [4] -0.025 | [6] -0.064

U2AF1L5 (UniProt P0DN76)
inactive: nilotinib -0.033 | [1] 0.061 | dasatinib -0.012 | [2] 0.077 | [3] 0.026 | tipifarnib -0.01 | [5] 0.009 | [6] -0.022

UBXN2B (UniProt Q14CS0)
inactive: nilotinib -0.04 | [1] -0.068 | dasatinib 0.08 | [2] -0.208 | [3] -0.099 | tipifarnib 0.021 | [5] -0.024 | [6] -0.06

TWF1 (UniProt Q12792)
inactive: nilotinib -0.006 | [1] -0.018 | dasatinib 0.003 | [2] -0.046 | [3] 0.007 | quisinostat 0.014 | tipifarnib 0.009 | [4] -0.019 | [5] 0.008 | [6] 0.004

TXNDC5 (UniProt Q8NBS9)
inactive: nilotinib 0.025 | [1] -0.01 | dasatinib 0.021 | [2] -0.004 | [3] -0.005 | quisinostat 0.01 | tipifarnib 0.008 | [4] -0.022 | [5] -0.028 | [6] 0.015

TUBAL3 (UniProt A6NHL2)
inactive: nilotinib 0.068 | [1] -0.189 | dasatinib -0.074 | [2] 0.103 | [3] 0.082 | tipifarnib 0.141 | [5] -0.025 | [6] -0.142

UBN2 (UniProt Q6ZU65)
inactive: nilotinib 0.284 | [1] 0.121 | dasatinib -0.002 | [2] -0.052 | [3] -0.005 | quisinostat 0.071 | tipifarnib 0.048 | [4] 0.025 | [6] 0.118

UBA6
inactive: nilotinib 0.018 | [1] 0.016 | dasatinib -0.021 | [2] 0.019 | [3] 0.011 | quisinostat -0.012 | tipifarnib 0.007 | [4] 0.029 | [5] 0.011 | [6] -0.014

TXNRD1 (UniProt Q16881)
inactive: nilotinib 0.002 | [1] -0.01 | dasatinib 0.016 | [2] -0.012 | [3] -0.021 | quisinostat -0.031 | tipifarnib 0.009 | [4] -0.002 | [5] -0.003 | [6] 0.013

TWNK (UniProt Q96RR1)
inactive: nilotinib -0.075 | [1] 0.062 | dasatinib -0.11 | [2] 0.183 | [3] -0.011 | quisinostat -0.429 | tipifarnib 0.139 | [4] 0.076 | [6] -0.187

TUBB4A (UniProt M0QYM7)
inactive: nilotinib -0.029 | [1] -0.009 | [2] 0.039 | quisinostat -0.116 | tipifarnib 0.013 | [4] 0.107 | [5] -0.048 | [6] 0.126

TVP23C (UniProt Q96ET8)
inactive: quisinostat -0.084 | [4] -0.023

TXNDC9 isoform 2 (UniProt O14530)
inactive: dasatinib -0.058 | [3] 0.048

UCHL5 (UniProt Q5LJA9)
inactive: dasatinib -0.214 | [3] -0.075 | quisinostat -0.186 | [4] -0.024 | [5] 0.009 | [6] 0.006

TXNDC2 (UniProt Q86VQ3)
inactive: nilotinib 0.237 | [1] -0.036 | [2] 0.015 | quisinostat 0.006 | tipifarnib 0.019 | [4] 0.045 | [5] 0.048 | [6] -0.042

TXNRD1 isoform 7 (UniProt Q16881)
inactive: dasatinib 0.052 | [3] -0.25 | [5] -0.107

UBE2I (UniProt H3BQQ9)
inactive: dasatinib -0.005 | [3] 0.041 | quisinostat -0.232 | [4] -0.066 | [5] 0.194

UBAP2, A0A0D9SFI5
inactive: quisinostat 0.151 | [4] 0.111

UBA2 (UniProt K7ESK7)
inactive: [5] -0.096

UBA2 (UniProt U3KQ93)
inactive: quisinostat -0.195 | [4] 0.06 | [6] -0.014

TXNDC16 (UniProt Q9P2K2)
inactive: dasatinib 0.156 | [3] -0.096 | quisinostat -0.001 | [4] 0.064 | [5] -0.1 | [6] 0.073

UBAC2 (UniProt Q8NBM4)
inactive: dasatinib 0.086 | [3] -0.024 | quisinostat -0.001 | [4] 0.019 | [5] 0.069 | [6] -0.028

UBE2W isoform 3 (UniProt Q96B02)
inactive: [6] -0.218

UBAP2L (UniProt F8W726)
inactive: quisinostat 0.11 | [4] 0.043 | [5] 0.099

UBE2K (UniProt D6RDM7)
inactive: nilotinib -0.33 | [1] -0.058 | [2] 0.044 | tipifarnib -0.037 | [5] 0.108 | [6] 0.069

TXNRD3 (UniProt Q86VQ6)
inactive: [5] -0.092 | [6] 0.021

Three entries picked at random from the list so far:
TXNRD1 (UniProt Q16881)
inactive: nilotinib 0.002 | [1] -0.01 | dasatinib 0.016 | [2] -0.012 | [3] -0.021 | quisinostat -0.031 | tipifarnib 0.009 | [4] -0.002 | [5] -0.003 | [6] 0.013

TUFM (UniProt P49411)
inactive: nilotinib 0.024 | [1] -0.016 | dasatinib -0.012 | [2] -0.013 | [3] 0.054 | quisinostat -0.022 | tipifarnib 0.018 | [4] 0.087 | [5] 0.031 | [6] -0.023

TXNRD3 (UniProt Q86VQ6)
inactive: [5] -0.092 | [6] 0.021

Following part:

U2SURP isoform 2 (UniProt O15042)
inactive: dasatinib 0.095 | [3] -0.118 | [6] 0.229

U2AF2 (UniProt K7ELP8)
inactive: nilotinib -0.062 | [1] -0.01 | [2] -0.143 | tipifarnib 0.145 | [5] 0.058

TUBB6 (UniProt K7ES63)
inactive: nilotinib -0.051 | [1] 0.112 | [2] -0.155 | quisinostat -0.267 | tipifarnib 0.08 | [4] 0.049 | [5] 0.08 | [6] -0.008

TUFT1 (UniProt Q9NNX1)
inactive: nilotinib -0.047 | [1] -0.013 | [2] 0.051 | tipifarnib 0.034 | [6] -0.012

UBXN2A (UniProt P68543)
inactive: dasatinib 0.142 | [3] -0.035 | quisinostat -0.13 | [4] 0.017 | [5] -0.081 | [6] -0.055

TTYH3 isoform 4 (UniProt Q9C0H2)
inactive: [6] 0.09

TYK2 (UniProt P29597)
inactive: quisinostat 0.005 | [4] 0.016 | [6] -0.122

UBE2L5, A0A1B0GUS4
inactive: [5] 0.077 | [6] 0.091

UBXN7 (UniProt H7BYF4)
inactive: nilotinib -0.229 | [1] 0.146 | [2] 0.196 | tipifarnib 0.044 | [5] -0.036

UBN1 (UniProt Q9NPG3)
inactive: dasatinib 0.208 | [3] 0.055 | quisinostat 0.114 | [4] -0.053 | [5] 0.001

TYW5 (UniProt A2RUC4)
inactive: nilotinib -0.026 | [1] 0.063 | [2] -0.106 | quisinostat 0.242 | tipifarnib -0.106 | [4] 0.073 | [5] -0.064 | [6] 0.125

TXNRD2 isoform 3 (UniProt Q9NNW7)
inactive: [6] -0.228

UBQLN1 isoform 2 (UniProt Q9UMX0)
inactive: dasatinib 0.096 | [3] 0.022 | quisinostat -0.041 | [4] -0.183 | [5] -0.072 | [6] 0

TYRO3 (UniProt Q06418)
inactive: quisinostat -0.161 | [4] 0.205

UBAP2 (UniProt Q5JV08)
inactive: nilotinib -0.211 | [1] 0.172 | [2] 0.104 | tipifarnib 0.133

UBXN10 (UniProt Q96LJ8)
inactive: dasatinib -0.007 | [3] 0.008 | quisinostat -0.028 | [4] 0.035 | [5] 0.078 | [6] 0.014

UBQLN1 (UniProt H0YEZ9)
inactive: [6] 0.042

UBR4 isoform 4 (UniProt Q5T4S7)
inactive: dasatinib -0.083 | [3] -0.158 | [5] -0.078 | [6] 0.049

UBE2O (UniProt K7ES11)
inactive: [5] -0.149

UBA7 (UniProt P41226)
inactive: quisinostat -0.075 | [4] 0.084 | [6] -0.103
